Source: patent US20070099852A1, “CUCURBITACIN COMPOUNDS” (SOUTH DAKOTA STATE UNIVERSITY, priority 2005, published 2007)

Key:
HepG2 cells = settings: toxic over cytoprotective concentration
Source text: The activity of two toxins was studied first on HepG2 cells—bromobenzene (BB) and CCl4. Cells were challenged with the toxins at different concentration levels.
Experimental conditions were standardized on silybin. Cells were challenged with CCl4 (4.5×10^−3M) in presence of silybin at various concentrations.
The ratio of IC50-to-EC50 (hereafter T/A) is also indicated in this table, which gives the margin between toxic and cytoprotective concentrations.

HSC-T6 cells = test: Serum-driven HSC-T6 proliferation, Experiment 3 (24 h, proliferating cells); type: cell-based, rat; settings: HSC-T6, Experiment 3, IC50/EC50

Row | Compound | T/A (ratio of IC50 and EC50) (HepG2 cells) | T/A (toxic over antiproliferation concentration) (HSC-T6 cells)
1 | CC(=O)OC(C)(C)/C=C/C(=O)[C@](C)(O)[C@H]1[C@H](O)C[C@@]2(C)[C@@H]3CC=C4[C@H](C[C@H](O)C(=O)C4(C)C)[C@]3(C)C(=O)C[C@]12C [B, cucurbitacin B] | 2.6 | 180
2 | CC(C)(O)/C=C/C(=O)[C@](C)(O)[C@H]1[C@H](O)C[C@@]2(C)[C@@H]3CC=C4[C@@H](C[C@H](O)C(=O)C4(C)C)[C@]3(C)C(=O)C[C@]12C [D, cucurbitacin D] | 8.6 | 
3 | CCOC1=CC2C(=CCC3C2(C)C(=O)CC2(C)C(C(C)(O)C(=O)C=CC(C)(C)OC(C)=O)C(O)CC32C)C(C)(C)C1=O (stereo not drawn) [E-Et] |  | 13
4 | CC(=O)OC(C)(C)/C=C/C(=O)[C@](C)(O)[C@H]1[C@H](O)C[C@@]2(C)[C@@H]3CC=C4[C@@H](C=C(O[C@@H]5O[C@H](CO)[C@@H](O)[C@H](O)[C@H]5O)C(=O)C4(C)C)[C@]3(C)C(=O)C[C@]12C [E-Gluc, cucurbitacin E glucoside] | 5.0 | 29
5 | CCCOC1=CC2C(=CCC3C2(C)C(=O)CC2(C)C(C(C)(O)C(=O)C=CC(C)(C)OC(C)=O)C(O)CC32C)C(C)(C)C1=O (stereo not drawn) [E-nPr] |  | 8
6 | CC(C)(O)/C=C/C(=O)[C@](C)(O)[C@H]1[C@H](O)C[C@@]2(C)[C@@H]3CC=C4[C@@H](C=C(O)C(=O)C4(C)C)[C@]3(C)C(=O)C[C@]12C [I, cucurbitacin I] | 5.0 | 150
7 | CCOC1=CC2C(=CCC3C2(C)C(=O)CC2(C)C(C(C)(O)C(=O)C=CC(C)(C)O)C(O)CC32C)C(C)(C)C1=O (stereo not drawn) [I-Et] |  | 10
8 | CC(C)(O)/C=C/C(=O)[C@](C)(O)C1[C@H](O)C[C@@]2(C)C3CC=C4C(C=C(O[C@@H]5O[C@H](CO)[C@@H](O)[C@H](O)[C@H]5O)C(=O)C4(C)C)[C@]3(C)C(=O)C[C@]12C (stereo partly drawn) [I-Gluc, cucurbitacin I glucoside] |  | 64
9 | COC1=CC2C(=CCC3C2(C)C(=O)CC2(C)C(C(C)(O)C(=O)C=CC(C)(C)O)C(O)CC32C)C(C)(C)C1=O (stereo not drawn) [I-Me] | 2.9 | 62
10 | CC(C)OC1=CC2C(=CCC3C2(C)C(=O)CC2(C)C(C(C)(O)C(=O)C=CC(C)(C)O)C(O)CC32C)C(C)(C)C1=O (stereo not drawn) [I-iPr] |  | 9
11 | CCCOC1=CC2C(=CCC3C2(C)C(=O)CC2(C)C(C(C)(O)C(=O)C=CC(C)(C)O)C(O)CC32C)C(C)(C)C1=O (stereo not drawn) [I-nPr, cucurbitacin I-nPr] |  | 8
12 | COC1=CC2C(=CCC3C2(C)C(=O)CC2(C)C(C(C)(O)C(=O)CCC(C)(C)O)C(O)CC32C)C(C)(C)C1=O [L-Me, L-Me ether] |  | 31
13 | CC(C)(O)/C=C/C(=O)C(C)(O)C1C(O)CC2(C)C3CC=C4C(CC(=O)C(O)C4(C)C)C3(C)C(=O)CC12C (stereo not drawn) [iso-D] | 5.8 | 139
14 | Cucurbitacin E-Me ether | 5.0 | 33
15 | cucurbitacin E |  | 54
